PubChem BioAssay AID1688 (National Center for Advancing Translational Sciences (NCATS), 2009)
The campaign covered roughly 220,000 compounds. About 2,400 (1.1%) were called active. The inconclusive results got no clear call from the source; some entries with a clear call stand among them for comparison. Calls follow the shape of the dose curve; as a rule, active = well fitted inhibition curve with a large enough effect; inconclusive = small, poorly fitted or top-dose-only effect, or effect the other way; inactive = no such curve, though single readings can be large or run the other way. A potency beside an inconclusive call is a rough fit, not a confirmed value.

Experiment: qHTS Multiplex Assay to Identify Dual Action Probes in a Cell Model of Huntington: Aggregate Formation (GFP); also: nearly all actives have a fitted effect of over 60% in size
Settings: PC12 HttQ103-GFP aggregates, Acumen cytometry, 40 h; activity change, negative = inhibition: at 46.1 µM (top of the series) unless noted
In short: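 Steps: seed 1500 PC12 HTTQ103-GFP cells/well; add tebufenozide, 100 nM final; add compound titration; add ATPLite reagent; quantify GFP aggregates by laser scanning cytometry.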
% is scaled to controls: 0 for no effect and ±100 for the full control effect; potency is read from the fitted curve at half-maximal effect.

Compound | Potency | activity change, negative = inhibition
CCc1ccccc1NC(=O)c1ccc([N+](=O)[O-])s1 | inconclusive: 31.6 µM [inhibitor, single point] | 
O=C(NNC(=O)C(c1ccccc1)c1ccccc1)c1ccccn1 | active: 10 µM | 
O=C(CSCCO)Nc1ccc([N+](=O)[O-])cc1 | inconclusive: 3.98 µM [activator, single point] | 
O=c1[nH]c(S)nc2sc3c(c12)CCCC3 | inconclusive: 35.5 µM [activator, single point] | 
O=C(c1cccc([N+](=O)[O-])c1)N1CCN(Cc2ccc3c(c2)OCO3)CC1 | inactive | 
CCc1ccc(-c2nc(CSCC(=O)N3CCN(c4ncccn4)CC3)c(C)o2)cc1 | active: 11.2 µM | 
COCCNC(=O)c1cnn2c1NC(c1ccco1)CC2C(F)(F)F (stereo unspecified) | inactive | 
c1cnc(NC2C3CC4CC(C3)CC2C4)nc1 (stereo unspecified) | inconclusive: 5.62 µM [inhibitor, single point] | 
CCNc1nc(NC(C)C)nc(ON=C(C)C)n1 | inconclusive: 12.6 µM [activator, single point] | 
CS(=O)(=O)N1CC(C(=O)O)Oc2ccc(CC(=O)O)cc21 (stereo unspecified) | inactive | 
O=C(NCc1ccccn1)c1cn(-c2ccccc2)nc1-c1ccc(Cl)cc1 | inactive | 
CSc1ccc(C(=O)/C=C/c2ccc(N)cc2)cc1 | inconclusive: 35.5 µM [activator, partial curve] | 
O=[N+]([O-])c1cc(/C=N/n2c(-c3cccnc3)n[nH]c2=S)ccc1Cl | inactive | 
COc1ccc(NS(=O)(=O)c2ccc(OC)c3ccccc23)cn1 | active: 17.8 µM | 
O=C(CCl)Nc1cccc(-c2cnc3ccccc3n2)c1 | active: 25.1 µM | 
CCN(CCNC(=O)C1CCN(S(=O)(=O)c2cccc3cccnc23)CC1)c1ccccc1 | inactive | 
Cc1ccc2c(c1)cc(CN(Cc1ccco1)C(=O)COc1ccccc1)c1nnnn12 | inconclusive: 12.6 µM [inhibitor, single point] | 
CCOC(=O)c1c(C)[nH]c(C)c1C(=O)CSc1nc2ccccc2c(=O)n1-c1ccc(F)cc1 | inconclusive: 11.2 µM [inhibitor, partial curve] | 
Cc1ccccc1OCc1nc2ccccc2c(=O)n1/N=C/c1ccco1 | active: 22.4 µM | 
CCOC(=O)C(NC(=O)CCl)(Nc1sc(C)c(CC)c1C#N)C(F)(F)F (stereo unspecified) | inconclusive: 35.5 µM [activator, single point] | 
COc1ccc(/C=N/NC(=O)c2cccc(OC(F)(F)C(F)F)c2)cc1O | inconclusive: 11.2 µM [activator, partial curve] | 
CC(C)c1cc(NCC2CCCO2)n2c(nc3ccccc32)c1C#N (stereo unspecified) | inactive | 
Cc1cc(C)nc(N/N=C/c2cc(C)n(CC(F)(F)F)c2C)n1 | inconclusive: 11.2 µM [inhibitor, partial curve] | 
O=C(O)Cc1ccc(N=Nc2c(O)c(C(=O)O)cc3ccccc23)cc1 |  | inactive: -14.6% [at 9.22 µM]

Compound | Potency | activity change, negative = inhibition
Sc1oc(-c2ccccc2)cc1C=Nc1ccccc1 |  | inactive: 5.21% [at 9.22 µM]
CC(C)Cn1c(-c2ccco2)nc2c(c(=O)c3ccccc3n2C)c1=O | inconclusive: 35.5 µM [inhibitor, single point] | 
COc1ccc(S(=O)(=O)N2CCN(c3cc(-c4ccccc4)nc4ncnn34)CC2)cc1 | active: 12.6 µM | 
CN(c1cccc(NC(=O)c2ccc(N(C)S(=O)(=O)c3ccccc3)cc2)c1)S(C)(=O)=O | inconclusive: 14.1 µM [inhibitor, single point] | 
O/N=C1\CC/C(=N\O)c2nn(-c3ccc(Cl)cc3Cl)nc21 | inconclusive: 10 µM [inhibitor, single point] | 
O=C(Nc1cccc(F)c1)c1ccc(Cn2cc([N+](=O)[O-])cn2)o1 | inconclusive: 35.5 µM [inhibitor, single point] | 
Cc1onc(-c2ccccc2Cl)c1C(=O)Nc1cccc2cccnc12 | inconclusive: 35.5 µM [inhibitor, single point] | 
Cc1cccc(N/C=C(\[N+](=O)[O-])S(=O)(=O)c2ccccc2)c1 | inconclusive: 3.55 µM [activator, single point] | 
COc1ccc(N2CCN(C(=O)c3ccc(C)cc3)CC2)c([N+](=O)[O-])c1 | inactive | 
COc1ccc(-c2cn3cc(C)ccc3n2)cc1OC | inconclusive: 1.12 µM [activator, single point] | 
N/C(=N/O)c1ccccc1N1CCC(Cc2ccccc2)CC1 | inconclusive: 12.6 µM [inhibitor, single point] | 
CCSC1=NC2(CCCCC2)Nc2sc3c(c21)CCCC3 | inconclusive: 0.112 µM [inhibitor, partial curve, poor fit] | 
Cc1ccc2[nH]c3c(c2c1)CN(C(=O)CN1CCN(Cc2ccc4c(c2)OCO4)CC1)CC3 | inconclusive: 35.5 µM [inhibitor, single point] | 
Oc1c(CN2CCCCC2)cc(Br)c2cccnc12 | inconclusive: 5.62 µM [inhibitor, single point] | 
CCNC(=S)NS(=O)(=O)c1ccc(F)cc1 | inconclusive: 6.31 µM [activator, partial curve, poor fit] | 
Cc1cccc(NC(=O)c2cccc(N3C(=O)C4C5CCC(C5)C4C3=O)c2)c1C (stereo unspecified) | inactive | 
CC(C)(C)C(=O)C(Cl)C(=O)Nc1ccccc1 (stereo unspecified) |  | inactive: -17% [at 9.22 µM]
c1nc(N2CCOCC2)c2c3c(sc2n1)CCCC3 | inconclusive: 17.8 µM [inhibitor, partial curve] | 
O=C(NCC1CCCCC1)C1CCCN(C(=O)NC2CCCCC2)C1 (stereo unspecified) | inactive | 
Cc1cccc(N2CSC3=C(C#N)C(c4ccc(C)o4)CC(=O)N3C2)c1 (stereo unspecified) | inactive | 
COc1ccc(C(=O)NC(=S)NNC(=O)c2cnccn2)cc1OC | inconclusive: 2.82 µM [inhibitor, partial curve] | 
Cc1ccc(NC(=O)Cn2c(=O)oc3cc(S(=O)(=O)N4CCC(C)CC4)ccc32)cc1C | inconclusive: 6.31 µM [inhibitor, partial curve] | 
CC(CN1CCNCC1)(NS(=O)(=O)c1ccccc1)c1ccccc1 (stereo unspecified) | inconclusive: 3.98 µM [activator, single point] | 
COc1ccc(N=CC2=C(O)c3ccccc3C2=O)c(OC)c1 | inactive | 

Compound | Potency | activity change, negative = inhibition
Cc1ccc(NC(=O)C(C)c2cccc(C(=O)c3ccccc3)c2)cc1 (stereo unspecified) | active: 25.1 µM | 
Cc1ccc(S(=O)(=O)N2CCOCC2)cc1NC(=O)Cn1ccsc1=N | inconclusive: 0.562 µM [inhibitor, full curve, poor fit] | 
Cc1c(O)ccc(C(=O)COc2ccc(F)cc2)c1O | inconclusive: 0.562 µM [inhibitor, partial curve, poor fit] | 
O=c1[nH]cc(N2CCCCCC2)c(=O)[nH]1 |  | inactive: 11.4% [at 9.22 µM]
COc1ccc(/C=C/C(=O)NC(=S)NNC(=O)c2ccco2)cc1 | inconclusive: 28.2 µM [inhibitor, partial curve, poor fit] | 
Cc1cccc(N2CCN(c3nc4ccc(Cl)cc4n4cnnc34)CC2)c1C | inconclusive: 35.5 µM [inhibitor, single point] | 
O=C(Nc1nc2ccccc2n1CCN1CCOCC1)c1cn(-c2ccccc2)nc1-c1ccccc1 | inconclusive: 15.8 µM [inhibitor, single point] | 
Cc1cc(C)n(CC(O)Cn2c3ccc(Br)cc3c3cc(Br)ccc32)c(=O)n1 (stereo unspecified) | inconclusive: 25.1 µM [inhibitor, single point] | 
CCOc1cccc2cc(C(=O)NCCC3=CCCCC3)c(=O)oc12 | inactive | 
CCCCOC(=O)C1=C(C)Nc2ncnn2C1c1ccc(OC)c(OC)c1OC (stereo unspecified) | inconclusive: 14.1 µM [activator, partial curve, poor fit] | 
CCOC(=O)/C=C1\NC(C)(C)Cc2cc(OC)c(OC)cc21 | inactive | 
CC(C)(C)Nc1nc2ccc([N+](=O)[O-])cc2o1 |  | inactive: -1.23% [at 9.22 µM]
Cc1cccc(C)c1NC(=O)c1sccc1SCc1cccc(C(F)(F)F)c1 | inconclusive: 35.5 µM [inhibitor, single point] | 
CCOC(=O)C(C(=O)OCC)N(C#N)c1nc(C)cc(C)n1 | inconclusive: 1.58 µM [inhibitor, full curve, poor fit] | 
Cc1ccc(-c2nnc(OCC3CCCO3)c3ccccc23)cc1 (stereo unspecified) |  | inactive: 2.17% [at 9.22 µM]
N#Cc1ccccc1Cn1cc(/C=C/[N+](=O)[O-])c2ccccc21 | inconclusive: 35.5 µM [inhibitor, single point] | 
O=S(Cc1ccc(Br)cc1)Cc1nnc(SCc2ccc(Br)cc2)n1-c1ccccc1 (stereo unspecified) | inconclusive: 11.2 µM [inhibitor, single point] | 
CSc1ccc(/C=C/C(=O)c2ccc(O)cc2)cc1 | inactive | 
COc1nc(N(c2ccccc2)c2ccccc2)nc(-n2ccnc2)n1 | inconclusive: 22.4 µM [inhibitor, single point] | 
CCCCCC(=O)Nc1cccc(C2=NOC3(C2)C[C@H](C(N)=O)N(C(=O)c2ccccc2C(=O)c2ccccc2)C3)c1 (stereo partly specified) |  | inactive: 18% [at 9.22 µM]
CS(=O)(=O)N(CC(=O)N1CCN(Cc2ccccc2)CC1)C1CCCCC1 | inconclusive: 3.16 µM [inhibitor, partial curve] | 
COc1ccc(OCCC(=O)OCC(=O)Nc2ccc(S(=O)(=O)N3CCOCC3)cc2)cc1 | inconclusive: 17.8 µM [activator, partial curve] | 
CCCCC(=O)NC(=S)Nc1cc(C(=O)O)ccc1Cl | inconclusive: 1.26 µM [inhibitor, single point] | 

Full records as entered above:
`N#Cc1ccccc1Cn1cc(/C=C/[N+](=O)[O-])c2ccccc21` is entered as Potency: inconclusive: 35.5 µM [inhibitor, single point]
`Cc1cccc(N2CCN(c3nc4ccc(Cl)cc4n4cnnc34)CC2)c1C` is entered as Potency: inconclusive: 35.5 µM [inhibitor, single point]
`CCOC(=O)C(C(=O)OCC)N(C#N)c1nc(C)cc(C)n1` is entered as Potency: inconclusive: 1.58 µM [inhibitor, full curve, poor fit]
`Cc1cccc(C)c1NC(=O)c1sccc1SCc1cccc(C(F)(F)F)c1` is entered as Potency: inconclusive: 35.5 µM [inhibitor, single point]
